The text below walks through data of article PMC7181607.

By UniProt entry, the sequences of proteins in these tests, tags left out. Where a name states a change or a piece, a line headed by the entry shows the natural chain unless it says otherwise.
UniProt P01583: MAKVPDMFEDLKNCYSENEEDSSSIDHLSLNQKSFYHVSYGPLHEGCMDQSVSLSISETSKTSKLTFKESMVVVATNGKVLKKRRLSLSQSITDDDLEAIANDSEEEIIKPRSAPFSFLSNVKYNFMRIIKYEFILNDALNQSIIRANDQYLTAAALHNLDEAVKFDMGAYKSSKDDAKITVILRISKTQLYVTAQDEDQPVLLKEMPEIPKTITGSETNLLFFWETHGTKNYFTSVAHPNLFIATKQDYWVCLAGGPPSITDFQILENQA

Experiment [1] deals with EGFP-tagged p53 (UniProt P04637). Briefly: co-IP; U2OS cells co-expressing IL-1α/Flag with p53/EGFP or with EGFP; precipitation with GFP-Trap agarose beads (ChromoTek).
Experiment [2] has the same target. As to the kind of experiment: co-IP; A375 cells co-transfected with IL-1α/Flag and p53/EGFP, lysed 24 h after transfection; IP with anti-GFP antibody on protein G-agarose, overnight at 4 °C; IL-1α/Flag detected with anti-Flag antibody.
Experiment [3] has as its target endogenous p53 (human (endogenous in U2OS, A375, HeLa)) (UniProt P04637). As to the kind of experiment: proximity ligation; Duolink in situ PLA in fixed U2OS cells transfected with IL-1α/EGFP or IL-1αNTP/EGFP; anti-GFP and anti-p53 (CM-1) antibodies; IL-1α/EGFP cells treated with 20 μM roscovitine for 24 hours.
Experiment [4] has as its target Flag-tagged full-length IL-1α (UniProt P01583). Briefly: co-IP; Mrc-5 cells co-transfected with p53/EGFP and IL-1α/Flag; IP with anti-Flag antibody on protein G-agarose, overnight at 4 °C; p53/EGFP detected with anti-p53 antibody.
For experiment [5], the target named is endogenous p53 (human (endogenous in U2OS, A375, HeLa)) (UniProt P04637). As to the kind of experiment: co-IP; endogenous proteins, untreated U2OS cells; IP with anti-p53 antibody CM-1; IL-1α detected by western blotting.
For experiment [6] the target is unchanged. Briefly: co-IP; endogenous proteins, U2OS (and A375) cells treated with etoposide (10 µg/ml, 2 hours); IP with anti-p53 antibody CM-1; IL-1α detected by western blotting.
The target is the same in experiment [7]. As to the kind of experiment: proximity ligation; Duolink in situ PLA of endogenous proteins in fixed A375, HeLa and U2OS cells; mouse anti-IL-1α (I7409) and rabbit anti-p53 (CM-1) antibodies; cells untreated or treated with 10 µg/ml etoposide for two hours.

No constants are given. Whether binding was seen depends on the method and setting. Binding seen in cells or lysates may run through a third protein. Binding can be weak; no strength is given.

As to “Flag-tagged full-length IL-1α (from UniProt P01583)”, the binding entry in the experiment with EGFP-tagged p53 [1] and in the experiment with EGFP-tagged p53 [2] was “binds” in each case.
With “full-length IL-1α/EGFP fusion protein (from UniProt P01583)”, the binding entry in experiment [3] is “binds”.
On to “EGFP-tagged p53 (from UniProt P04637 1-393)”, for which, in experiment [4], the binding result was “binds”.
In the case of endogenous IL-1α (from UniProt P01583), the binding result is “binds weakly” in experiment [5], “binds” in experiment [6] and “binds” in experiment [7].
